In US6686450:
Results are given in words; binding and its absence hold for the method and conditions named. Some results given as binding are weak or reduced against the parent protein; the word gives no strength.

Sequences of proteins named here, by UniProt entry; tags and fusion partners are left off. A change or cut given only in a name is not applied to a line headed by its entry.
UniProt P04386: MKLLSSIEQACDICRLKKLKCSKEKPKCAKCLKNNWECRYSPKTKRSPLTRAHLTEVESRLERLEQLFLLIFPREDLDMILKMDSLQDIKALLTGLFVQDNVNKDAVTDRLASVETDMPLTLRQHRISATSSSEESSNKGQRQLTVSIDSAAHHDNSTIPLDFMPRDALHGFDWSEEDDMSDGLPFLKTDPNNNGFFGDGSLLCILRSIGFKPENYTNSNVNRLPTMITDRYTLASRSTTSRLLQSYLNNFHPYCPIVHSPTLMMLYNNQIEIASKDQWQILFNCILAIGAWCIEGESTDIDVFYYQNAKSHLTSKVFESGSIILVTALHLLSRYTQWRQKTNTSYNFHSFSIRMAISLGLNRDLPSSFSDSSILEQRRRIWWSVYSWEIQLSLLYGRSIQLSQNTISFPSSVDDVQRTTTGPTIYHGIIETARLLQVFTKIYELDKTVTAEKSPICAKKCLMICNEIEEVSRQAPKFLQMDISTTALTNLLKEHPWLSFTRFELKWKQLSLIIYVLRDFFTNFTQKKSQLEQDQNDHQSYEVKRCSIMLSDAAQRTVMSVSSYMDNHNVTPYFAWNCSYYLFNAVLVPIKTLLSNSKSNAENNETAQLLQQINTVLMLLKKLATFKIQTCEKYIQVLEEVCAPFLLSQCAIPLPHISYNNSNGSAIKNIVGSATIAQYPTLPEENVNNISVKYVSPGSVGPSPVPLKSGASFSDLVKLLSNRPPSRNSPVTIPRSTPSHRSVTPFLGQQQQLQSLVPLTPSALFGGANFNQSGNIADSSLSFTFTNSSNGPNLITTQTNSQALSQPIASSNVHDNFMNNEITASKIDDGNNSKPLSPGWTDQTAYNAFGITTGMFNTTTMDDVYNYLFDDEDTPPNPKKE
UniProt Q9Y6J0: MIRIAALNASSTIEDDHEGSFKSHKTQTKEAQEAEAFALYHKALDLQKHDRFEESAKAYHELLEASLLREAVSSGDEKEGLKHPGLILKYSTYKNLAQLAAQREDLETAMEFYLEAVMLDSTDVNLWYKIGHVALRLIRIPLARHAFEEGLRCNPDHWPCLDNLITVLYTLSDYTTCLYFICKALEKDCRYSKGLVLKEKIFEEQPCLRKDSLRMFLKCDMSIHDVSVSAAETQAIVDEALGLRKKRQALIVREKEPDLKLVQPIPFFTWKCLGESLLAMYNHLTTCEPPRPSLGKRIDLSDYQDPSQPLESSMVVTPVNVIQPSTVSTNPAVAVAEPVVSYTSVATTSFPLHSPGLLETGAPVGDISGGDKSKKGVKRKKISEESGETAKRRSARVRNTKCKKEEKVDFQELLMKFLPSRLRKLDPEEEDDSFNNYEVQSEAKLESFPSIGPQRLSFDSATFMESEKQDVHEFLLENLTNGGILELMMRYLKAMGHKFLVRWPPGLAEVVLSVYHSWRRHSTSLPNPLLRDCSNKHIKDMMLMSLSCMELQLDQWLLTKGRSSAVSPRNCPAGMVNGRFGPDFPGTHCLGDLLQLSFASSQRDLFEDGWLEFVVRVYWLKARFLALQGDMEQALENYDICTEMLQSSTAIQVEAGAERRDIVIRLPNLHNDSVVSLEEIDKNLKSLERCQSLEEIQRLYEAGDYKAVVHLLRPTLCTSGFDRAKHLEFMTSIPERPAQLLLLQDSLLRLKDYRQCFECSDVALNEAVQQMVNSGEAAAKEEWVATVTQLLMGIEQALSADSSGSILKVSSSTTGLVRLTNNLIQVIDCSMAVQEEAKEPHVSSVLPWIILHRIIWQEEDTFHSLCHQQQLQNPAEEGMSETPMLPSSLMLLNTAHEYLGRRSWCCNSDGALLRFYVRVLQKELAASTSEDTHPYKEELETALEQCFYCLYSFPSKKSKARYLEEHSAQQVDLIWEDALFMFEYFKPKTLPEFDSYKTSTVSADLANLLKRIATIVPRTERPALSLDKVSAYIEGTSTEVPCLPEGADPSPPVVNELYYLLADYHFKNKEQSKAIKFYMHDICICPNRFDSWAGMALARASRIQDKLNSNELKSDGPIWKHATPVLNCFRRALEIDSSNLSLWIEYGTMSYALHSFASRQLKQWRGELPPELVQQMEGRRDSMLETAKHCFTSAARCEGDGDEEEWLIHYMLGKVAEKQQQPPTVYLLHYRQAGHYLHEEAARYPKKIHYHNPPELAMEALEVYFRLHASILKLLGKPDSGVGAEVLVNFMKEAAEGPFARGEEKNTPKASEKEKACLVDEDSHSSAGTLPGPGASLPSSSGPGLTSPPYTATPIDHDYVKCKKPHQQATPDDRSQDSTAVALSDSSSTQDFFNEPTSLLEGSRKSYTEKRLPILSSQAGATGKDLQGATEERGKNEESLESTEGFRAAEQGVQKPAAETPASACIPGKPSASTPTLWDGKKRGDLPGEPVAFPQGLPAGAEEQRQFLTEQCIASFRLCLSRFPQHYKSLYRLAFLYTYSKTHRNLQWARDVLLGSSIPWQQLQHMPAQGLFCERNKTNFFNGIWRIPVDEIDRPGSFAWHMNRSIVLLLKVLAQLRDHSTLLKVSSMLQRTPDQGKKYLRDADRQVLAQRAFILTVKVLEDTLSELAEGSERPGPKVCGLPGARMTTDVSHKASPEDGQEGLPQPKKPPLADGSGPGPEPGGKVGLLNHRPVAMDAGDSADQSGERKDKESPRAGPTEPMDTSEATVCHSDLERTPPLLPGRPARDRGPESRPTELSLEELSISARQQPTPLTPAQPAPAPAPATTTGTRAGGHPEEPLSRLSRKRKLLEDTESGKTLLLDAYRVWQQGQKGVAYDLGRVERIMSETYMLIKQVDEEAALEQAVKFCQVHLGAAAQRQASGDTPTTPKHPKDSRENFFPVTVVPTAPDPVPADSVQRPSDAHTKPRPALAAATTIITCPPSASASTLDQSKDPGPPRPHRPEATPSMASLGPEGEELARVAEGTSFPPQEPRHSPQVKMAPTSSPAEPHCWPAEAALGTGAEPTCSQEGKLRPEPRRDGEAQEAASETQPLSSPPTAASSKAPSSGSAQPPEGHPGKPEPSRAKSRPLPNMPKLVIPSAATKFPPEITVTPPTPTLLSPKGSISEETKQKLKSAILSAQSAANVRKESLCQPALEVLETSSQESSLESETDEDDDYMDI

Assays:
[1] = target: GAL4 DB - full length calcineurin Aβ2 wild type (UniProt P04386); assay: mammalian two-hybrid in Jurkat T cells
[2] = target: GAL4 DB - full length calcineurin Aβ2 wild type (UniProt P04386); assay: mammalian two-hybrid (luciferase) in Jurkat T cells

In the case of “VP16 AD - Cabin 1-14 (from UniProt Q9Y6J0 2143-2220)”, the binding [1] was “binds” and the binding [2] was “binds”.
